Test results: US20200386770A1 (YUROGEN BIOSYSTEMS, published 2020)
Results are given in words; binding and its absence hold for the method and conditions named. Some results given as binding are weak or reduced against the parent protein; the word gives no strength. Blank lines part the entries; values can stand above or below the binder they belong to.

Amino acid sequences for entries named in this document (tags omitted). A change or cut given only in a name is not applied to a line headed by its entry.
UniProt Q9NZQ7: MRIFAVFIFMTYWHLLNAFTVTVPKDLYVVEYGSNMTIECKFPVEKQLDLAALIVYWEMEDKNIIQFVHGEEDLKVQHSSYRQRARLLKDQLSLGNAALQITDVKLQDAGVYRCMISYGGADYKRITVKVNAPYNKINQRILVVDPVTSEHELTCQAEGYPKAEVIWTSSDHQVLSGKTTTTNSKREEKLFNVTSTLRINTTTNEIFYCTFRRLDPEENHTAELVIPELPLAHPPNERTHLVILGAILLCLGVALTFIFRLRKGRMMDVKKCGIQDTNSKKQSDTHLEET

Key:
human PD-L1 [1] = target: T1, human PD-L1 (human, UniProt Q9NZQ7 19-238, limits assumed); assay: capture ELISA, antibody held by anti-rabbit IgG Fc, biotinylated PD-L1
T1 construct: also called programmed death ligand-1; CD274

human PD-L1 [2] = target: T1, human PD-L1; assay: sandwich ELISA, 8C6 capture, biotinylated 2C5 detection
human PD-L1 [3] = target: T1, human PD-L1; assay: sandwich ELISA, 2C5 capture, biotinylated 8C6 detection
human PD-L1 [4] = target: T1, human PD-L1; assay: sandwich ELISA, 3B8 capture, biotinylated 2C5 detection
human PD-L1 [5] = target: T1, human PD-L1; assay: sandwich ELISA, 2C5 capture, biotinylated 3B8 detection
human PD-L1 [6] = target: T1, human PD-L1; assay: direct ELISA, human PD-L1 coated
human PD-L1 [7] = target: T1, human PD-L1; assay: sandwich ELISA, 8C6 capture, biotinylated 3B8 detection
human PD-L1 [8] = target: T1, human PD-L1; assay: sandwich ELISA (2C5 capture, 8C6 detection) compared with direct ELISA

B2: rabbit anti-human PD-L1 mAb 8C6 (antibody, V domains shown)
VH: QSVEESGGRLVTPGTPLTLTCTASGFDISRHHMCWVRQAPGEGLEYIGFINPPGSAYYANWAKGRFTISRTSTTVALEMTSLTTEDTATYFCARWRFDDYGDLWGQGTLVTVSS
VL: AYDMTQTPASVEVAVGGTVTIKCQASESIASYLAWYQQKPGQPPKLLIYKASTLASGVSSRFRGSGSGTEFTLTISGVECADAATYYCQQGYSATNIDNAFGGGTEVVVKG
notes: Recombinant rabbit IgG; Full heavy chain assembled from the Fab heavy chain entry followed by the Fc entry; Biotinylated when used as detection antibody in the sandwich ELISA
binding (human PD-L1 [1]): binds
binding (human PD-L1 [2]): binds
binding (human PD-L1 [3]): binds
binding (human PD-L1 [7]): binds
binding (human PD-L1 [8]): binds
binding (human PD-L1 [6]): binds

B3: rabbit anti-human PD-L1 mAb 3B8 (antibody, V domains shown)
VH: QSLEESGGDLVKPGASRTLTCTASGFSFSNNAYMCWVRQAPGKGLELIACIYSRYGNTHYASWAKGRFTISKTSSTTVTLQMTSLTAADTATYFCARGASGSSDYSFYFNLWGPGTLVTVSS
VL: AYDMTQTPASVEVAVGGTVTIKCQASQSISSWLAWYQQKPGQPPKLLIYDAYDLASGVPSRFKGSGSGTQFTLTISGVECTDAATYYCQQGYSSENIDNSFGGGTDVVVKG
notes: as for B2
binding (human PD-L1 [1]): binds
binding (human PD-L1 [7]): binds
binding (human PD-L1 [4]): binds
binding (human PD-L1 [5]): binds
binding (human PD-L1 [6]): binds

B4: rabbit anti-human PD-L1 mAb 10H6 (antibody, V domains shown)
VH: QEQLVESGGGLVQPEGSLTLTCTASGFSFSSIYYLCWVRQAPGKGLEWIACIYGGNSDNTWYASWAKGRFTISKTSSTTVTLQMTSLTAADTATYFCARGYDIYGYAINLWGPGTLVTVSS
VL: DVVMTQTPASVEAAVGGTVTIKCQASQSIGGYLAWYQQKPGQPPKLLIYRASTLESGVASRFKGSGSGTEFTLTISDLECADAATYYCQCTYDSSNSRIYPNVFGGGTEVVVKG
notes: Recombinant rabbit IgG; Full heavy chain assembled from the Fab heavy chain entry followed by the Fc entry
binding (human PD-L1 [1]): binds
binding (human PD-L1 [6]): binds

B5: rabbit anti-human PD-L1 mAb 12H2 (antibody, V domains shown)
VH: QEQLVESGGGLVQPEGSLTLTCTASGFSFSSSYYMCWVRQAPGKGLEWIACIWTSNGGRTYYANWAKGRFTISETSSTTVTLQMTSLTAADTATYFCARDDDTGSGYYNLWGPGTLVTVSS
VL: QIVMTQTASPVSAAVGGTVTINCQASESISSWLAWYQQKPGQPPKLLIYKASTLASGVPSRFKGSGSGTEFTLTISDLECADAATYYCQHGYYFGSVANTFGGGTEVVVKG
notes: as for B4
binding (human PD-L1 [1]): binds
binding (human PD-L1 [6]): binds

More lines, now with the values ahead:

binding (human PD-L1 [1]): binds
binding (human PD-L1 [2]): binds
binding (human PD-L1 [3]): binds
binding (human PD-L1 [4]): binds
binding (human PD-L1 [5]): binds
binding (human PD-L1 [6]): binds
B1: rabbit anti-human PD-L1 mAb 2C5 (antibody, V domains shown)
VH: QSVEESGGRLVTPGTPLTLTCTVSGFSLNNDNVGWVRQAPGKGLEWVGLIDILGSSYYASWAKGRFTISKTSNTVDLKITSPTIEDTATYFCAREGDGSFDPWGPGTLVTVSS
VL: AQVLTQTPSPVSAAVGGTVTINCQASQNVYNKKNLAWYQQKLGQPPKLLIYKASTLASGVPSRFSGSGSGTQFTLTISDLECDDAATYYCQGDYIGSRAFGGGTEVVVKG
notes: as for B2

binding (human PD-L1 [1]): binds
binding (human PD-L1 [6]): binds
B6: rabbit anti-human PD-L1 mAb 11G7 (antibody, V domains shown)
VH: QSVEESGGRLVTPGTPLTLTCTVSGIDLSSYDMTWVRQAPGKGLEYIGYISYFDKTYYATWAKGRFTISKTSTTVDLKMTSLTTEDTATYFCVRDRPDGITANLWGQGTLVTVSS
VL: AQLPTQTASPVSAAVGGTVTINCQSSHNVYSDNRLSWYQQKPGQPPKLLIYWASILASGVPSRFKGSGSGTQFTLTITDLECDDAATYYCAGGYSGNIYTFGGGTEVVVKG
notes: as for B4
